Results: patent US9644010B2, “LY6K epitope peptides for TH1 cells and vaccines containing the same” (ONCOTHERAPY SCIENCE, INC., priority 2012, dated 2017)
Not every detail of the peptide structures is certain; ends, links or a residue may be inferred. No end group written: not given here.

Test system: LY6K-specific T cells in PBMCs
Test: Assessment of LY6K-specific CD4+ T cell responses in head and neck cancer patients, IFN-gamma ELISPOT after 1 week stimulation of PBMCs with LPs
Format: cell-based, human
Settings: FIG. 8D; Mann-Whitney U test
Description: Two phase I clinical trials of peptide-based cancer immunotherapy were reviewed and approved by the Institutional Review Board of Kumamoto University, Kumamoto, Japan (approval no. 841 and 1124). […] Tumor stage and grading were determined according to the International Union against cancer (UICC) clarification. The patients suffered from inoperable advanced head and neck cancer with recurrent or metastatic tumors who had been resistant to standard therapy were enrolled in one trial (841). The patients suffered from operable advanced head and neck cancer were enrolled in another trial (1124). These patients in this trial (1124) had been treated with postoperative peptide-vaccine immunotherapy. […]
The PBMCs from cancer patients or healthy donors were cultured with 10 micro-g/ml of mixture of LY6K-derived LPs in a 24-well plate (2×10^6/well) in AIM-V supplemented with 5% human decomplemented plasma and IL-7 and IL-2 were added at day 0 and day 2. After 1 week of cell culture, the PBMCs were collected and the presence of LY6K-specific T cells was measured by IFN-gamma ELISPOT assays. […] The number of specific T cells expressed as spot-forming cells/10^5 cells was calculated after subtracting negative control values (background). […] Responses were evaluated to be positive when IFN-gamma were more than 10 and more than 2-fold the background. […]

Sequence: KWTEPYCVIAAVKIFPRFFMVAKQ [LY6K (119-142)]
- numbers of specific IFN-gamma spots in vaccinated patients compared with healthy donors: significantly larger
